# These are yes or no findings as the source states them, for the method shown. Binding seen in cells or lysates may run through a third protein.
# The chains behind the UniProt entries cited, without tags or fusion partners. Residues count along the entry.
# UniProt O43157, residues 20-2135: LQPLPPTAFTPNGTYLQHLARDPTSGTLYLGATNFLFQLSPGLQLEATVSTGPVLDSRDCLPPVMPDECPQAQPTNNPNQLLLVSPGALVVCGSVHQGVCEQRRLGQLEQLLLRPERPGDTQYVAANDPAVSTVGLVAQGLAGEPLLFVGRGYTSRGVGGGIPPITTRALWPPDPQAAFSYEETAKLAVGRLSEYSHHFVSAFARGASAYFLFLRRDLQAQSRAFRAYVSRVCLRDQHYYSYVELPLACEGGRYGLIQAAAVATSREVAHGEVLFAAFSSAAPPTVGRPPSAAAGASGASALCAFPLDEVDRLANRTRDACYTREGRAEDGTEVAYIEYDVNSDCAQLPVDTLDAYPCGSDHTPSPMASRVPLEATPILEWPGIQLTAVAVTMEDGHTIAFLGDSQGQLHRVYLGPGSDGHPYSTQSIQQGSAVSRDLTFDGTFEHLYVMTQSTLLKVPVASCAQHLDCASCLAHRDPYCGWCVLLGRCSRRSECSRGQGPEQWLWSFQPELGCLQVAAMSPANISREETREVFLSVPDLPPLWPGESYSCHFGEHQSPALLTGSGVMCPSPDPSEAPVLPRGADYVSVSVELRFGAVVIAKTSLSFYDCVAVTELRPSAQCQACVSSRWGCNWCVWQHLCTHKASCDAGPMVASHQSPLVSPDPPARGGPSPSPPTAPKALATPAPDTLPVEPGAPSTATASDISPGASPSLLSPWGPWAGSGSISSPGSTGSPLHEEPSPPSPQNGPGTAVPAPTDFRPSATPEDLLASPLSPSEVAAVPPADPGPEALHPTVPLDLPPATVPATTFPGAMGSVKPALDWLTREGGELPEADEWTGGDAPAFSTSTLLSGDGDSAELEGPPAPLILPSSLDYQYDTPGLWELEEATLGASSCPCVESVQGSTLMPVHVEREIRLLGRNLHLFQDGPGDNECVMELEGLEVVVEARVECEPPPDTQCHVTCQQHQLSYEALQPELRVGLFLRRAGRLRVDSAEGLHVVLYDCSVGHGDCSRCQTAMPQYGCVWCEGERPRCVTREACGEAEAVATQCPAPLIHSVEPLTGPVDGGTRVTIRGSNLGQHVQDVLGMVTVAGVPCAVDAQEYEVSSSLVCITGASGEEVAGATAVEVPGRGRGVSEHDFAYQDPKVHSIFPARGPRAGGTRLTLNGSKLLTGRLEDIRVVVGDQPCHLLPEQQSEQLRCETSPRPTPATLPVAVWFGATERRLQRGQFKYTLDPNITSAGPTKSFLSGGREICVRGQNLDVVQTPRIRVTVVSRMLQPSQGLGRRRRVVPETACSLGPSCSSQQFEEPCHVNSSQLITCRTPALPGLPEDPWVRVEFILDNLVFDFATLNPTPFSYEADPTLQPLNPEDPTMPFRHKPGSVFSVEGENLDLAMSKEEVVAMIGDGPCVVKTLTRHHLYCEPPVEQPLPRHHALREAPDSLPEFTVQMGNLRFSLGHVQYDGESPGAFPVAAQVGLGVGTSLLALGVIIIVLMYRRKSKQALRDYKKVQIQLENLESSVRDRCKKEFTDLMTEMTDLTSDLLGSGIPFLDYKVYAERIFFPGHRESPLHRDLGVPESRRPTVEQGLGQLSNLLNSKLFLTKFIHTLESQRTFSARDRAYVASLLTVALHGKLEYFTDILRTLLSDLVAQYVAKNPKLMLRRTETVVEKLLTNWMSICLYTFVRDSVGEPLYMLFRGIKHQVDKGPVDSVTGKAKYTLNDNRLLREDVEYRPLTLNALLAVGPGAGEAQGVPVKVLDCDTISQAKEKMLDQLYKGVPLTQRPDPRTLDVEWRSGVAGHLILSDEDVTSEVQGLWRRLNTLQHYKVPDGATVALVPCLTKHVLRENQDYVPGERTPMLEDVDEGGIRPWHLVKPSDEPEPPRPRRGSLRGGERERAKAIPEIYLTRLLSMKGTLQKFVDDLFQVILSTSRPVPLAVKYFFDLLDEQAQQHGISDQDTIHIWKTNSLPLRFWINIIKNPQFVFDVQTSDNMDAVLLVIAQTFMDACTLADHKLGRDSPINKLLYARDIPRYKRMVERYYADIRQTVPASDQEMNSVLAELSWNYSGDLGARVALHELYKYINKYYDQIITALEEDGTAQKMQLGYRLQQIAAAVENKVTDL
# Target: Plexin-B1 (human (endogenous in MCF-7)) (UniProt O43157)
# Test: condition: only cells treated with IKK inhibitor SC-514 (50 µM) for 30 minutes; co-IP; as a3, but MCF-7 cells incubated with IKK inhibitor SC-514 (50 µM) for 30 min before lysis
substance,measurement,value
ErbB-2 (from UniProt P04626 23-1255) (receptor),binding,no binding

# Reference: paper PMC4138210
